We go through 69 sequences from PubChem BioAssay AID1347426 (Functional Genomics Laboratory (NCATS/FGL), 2020).

The whole screen tested about 31,000 sequences, of which about 1,400 (4.5%) were called active.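 How the source made its calls: active means median seed-adjusted z-score above 1 or below -1; inactive means the rest.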 The list shows a part of the results.

The test is described as follows: Novel Modifiers of Survival Motor Neuron (SMN) Protein: Gene Identification via Genome-wide siRNA Screen.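 Further: luminescence tracks full-length SMN protein made from the SMN2 reporter.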 As to conditions: HEK293T SMN2-luciferase reporter, siRNA knockdown, 72 h; actives lie on both sides. A digest of the protocol: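 HEK293T cells stably expressing an SMN2 splicing/cDNA-luciferase reporter were reverse-transfected with a druggable-genome siRNA library and read by luminescence at 72 hours; hits defined by MAD score above 1.0 or below -1.0.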
A general note: A reporter such as luciferase makes a cellular process visible.
As for GGACAUCGUCCAGUGCUUUTT against NAIP, the median seed-adjusted z-score was inactive: -0.172.

As for GGUGUUGUCUGGUCAGUAATT against NLK, the median seed-adjusted z-score was inactive: 0.256.

For CAAGAUUACGAUUAUCUGATT against CDH3, the median seed-adjusted z-score is inactive: -0.138.

As for CCAUGUACGUCUACGUGGUTT against UTS2R, the median seed-adjusted z-score was inactive: 0.0819.

Consider GUGUAUACUCAAACUCAAATT against CPA4, for which the median seed-adjusted z-score is inactive: -0.182.

Turning to CAGUUAAACCUCUACAACATT against PLAG1, the median seed-adjusted z-score was inactive: 0.859.

With CGUCGAUGCUGUGCAUUGATT against POLS, the median seed-adjusted z-score is inactive: -0.334.

With CCCAAUACAGCUUACCGUATT against RECQL4, the median seed-adjusted z-score is inactive: 0.475.

In the case of GGAGUCACAUACAAUGAUATT against TMPRSS11B, the median seed-adjusted z-score is inactive: -0.545.

As for GAAUAUGAGAUGCUAACUATT against STK31, the median seed-adjusted z-score is inactive: 0.699.

In the case of CACGCUAGCUGUCCCUUUUTT against ARPC4, the median seed-adjusted z-score was inactive: -0.211.

For AGCACUGCAUGUUCACCGATT against KLHL25, the median seed-adjusted z-score is inactive: -0.0146.

In the case of GAGUGAUCGCGAAUAUCGATT against NEB, the median seed-adjusted z-score was inactive: 0.0485.

In the case of UCAGCAUCUUGGUCCUGUUTT against CALCA, the median seed-adjusted z-score was inactive: 0.0802.

In the case of CGAUUGGACGAAUUCACUUTT against GRM2, the median seed-adjusted z-score was inactive: -0.664.

Take UGGACAUUGUAGCCGCUGATT against TBX2: the median seed-adjusted z-score was inactive: 0.42.

On to GCCUUUAACUGGAGCAAAATT against MMP2, for which the median seed-adjusted z-score is inactive: 0.0467.

As to CGGAGUUAAUAGACCAAGATT against MLSTD2, the median seed-adjusted z-score is inactive: -0.294.

GGGUUCGUGUCUCUGCUCATT against MGC16703: the median seed-adjusted z-score is inactive: 0.55.

GCUCUACGGUGACCAGUGUTT against GCGR: the median seed-adjusted z-score was inactive: -0.224.

As to GUCAUUUCUUUACCCAAGATT against NUDT5, the median seed-adjusted z-score is inactive: 0.228.

Regarding AAAGUACCGUUCCAACAAATT against IL27RA, the median seed-adjusted z-score is inactive: 0.887.

Turning to CGUUAUCACCUGCAACAGATT against STK32A, the median seed-adjusted z-score was inactive: 0.052.

Consider GGUAGCUUUUUGAAACCUATT against TIGD7, for which the median seed-adjusted z-score is inactive: -0.116.

As to CCAUGUUACCAUACAAUAATT against MXD1, the median seed-adjusted z-score is inactive: -0.763.

Consider CAGUUGUCAUUAAAAGUUUTT against HS3ST3A1, for which the median seed-adjusted z-score is inactive: -0.133.

As for CACAAUUCAUGACCAUAUUTT against LRRC4, the median seed-adjusted z-score is inactive: 0.255.

In the case of CAGAGGCUUUGGACAAUUATT against HMX2, the median seed-adjusted z-score was inactive: -0.547.

In the case of GCCUCACAUUUUCUAAUGATT against RRM2, the median seed-adjusted z-score is active: -3.84.

As for CCUCAAGAUUCACCACUAUTT against OVGP1, the median seed-adjusted z-score was inactive: -0.642.

Consider GCAUUGACUCUUCUUACUATT against PGA5, for which the median seed-adjusted z-score is inactive: -0.149.

GAAAAUGACGGUUAUAAGATT against PMM2: the median seed-adjusted z-score is inactive: 0.448.

Take GGAUUGGUCCGACCUCGUATT against RNMTL1: the median seed-adjusted z-score is inactive: 0.174.

For GGAUAUGGGUAUACUAUUATT against MINPP1, the median seed-adjusted z-score was inactive: -0.0107.

Regarding GCCCACUGACCAUACCUCATT against NAT6, the median seed-adjusted z-score was inactive: -0.327.

In the case of GGCGGAGAGAUAUCACCUATT against TGM4, the median seed-adjusted z-score is inactive: -0.43.

As to GGAGGUCAAGUUAUCAGAATT against SDR42E1, the median seed-adjusted z-score is inactive: -0.109.

In the case of GCCUUUCGAAAGUACAUGATT against SCN11A, the median seed-adjusted z-score was inactive: 0.196.

Take GCAACGAUCACCUAAAUUATT against NOP2: the median seed-adjusted z-score was active: 1.15.

For GAAAAACGGAUAUUUACAATT against PITPNB, the median seed-adjusted z-score is inactive: 0.57.

As for GCAUUAGUUUCUCAGUUAATT against MLH1, the median seed-adjusted z-score was inactive: -0.215.

Turning to GGAGCUAUGCUUAUCCCAATT against GABRA6, the median seed-adjusted z-score is inactive: 0.466.

For the sequence GAACAACGGCUGCUAAAGATT against FER, the median seed-adjusted z-score was inactive: 0.

On to GUAUUAGCCUCACUUAACATT against FXC1, for which the median seed-adjusted z-score was inactive: -0.00735.

CAGUAACUGAAGAUCUUUATT against LRRC19: the median seed-adjusted z-score was inactive: -0.062.

In the case of GCAGAAACGUGCAGAUAAATT against GNL3L, the median seed-adjusted z-score is inactive: 0.568.

Take GCAACUUAUCACAACUGAATT against TLR6: the median seed-adjusted z-score was inactive: 0.505.

In the case of GGUUUGAUGUAGGCCCAAUTT against MTFMT, the median seed-adjusted z-score was inactive: -0.0119.

For the sequence GUGCCACCGGAGCUAGUAATT against KCNK4, the median seed-adjusted z-score was inactive: -0.446.

On to AGUGACUUGUGACAAUUUATT against LPAR5, for which the median seed-adjusted z-score is inactive: 0.0711.

GUAUUAACGAUUACAUCCATT against AGAP2: the median seed-adjusted z-score was inactive: 0.0934.

Take CACGAAAUAUUGGAAGUGATT against ST8SIA5: the median seed-adjusted z-score is inactive: -0.358.

For the sequence CCAUCGCAGUAAUUACUCATT against RLF, the median seed-adjusted z-score is inactive: 0.

On to CAACUGCCUUCACCAAAAUTT against UGT1A1, for which the median seed-adjusted z-score is inactive: -0.0283.

With GAGCCGCUGGUGUAUCUUUTT against TLR4, the median seed-adjusted z-score was inactive: 0.113.

Take ACCCAGAAUUUAACGAGGATT against DOC2A: the median seed-adjusted z-score was inactive: 0.299.

Take GAUCGCUACUUACAGGAUATT against CYP51A1: the median seed-adjusted z-score is inactive: -0.242.

As to GGAUAUGGUUGGUCAAAAUTT against CDH7, the median seed-adjusted z-score is inactive: 0.

For CAAGAAGAUGUAAAGCGUATT against RANBP17, the median seed-adjusted z-score was inactive: -0.123.

Turning to GGAAGACAUUCUGACUCAATT against SRrp35, the median seed-adjusted z-score is inactive: -0.0574.

For GGAUCGAGCUUUCUAUGGATT against PELO, the median seed-adjusted z-score is inactive: 0.394.

Take GCUCCAUCAUCAAGACUUATT against TSSK2: the median seed-adjusted z-score is inactive: -0.064.

Consider GGGACAUCCGAGAUCCUAATT against LAMB1, for which the median seed-adjusted z-score was active: 1.07.

For GCACAGUCAUCAUUCCGAATT against CYP21A2, the median seed-adjusted z-score is inactive: -0.26.

Turning to GGCUAAUCGAGACUUGUUATT against ANXA7, the median seed-adjusted z-score was inactive: 0.671.

On to GAGAAGUGCGUGUAUGAGATT against LRP10, for which the median seed-adjusted z-score was inactive: 0.109.

In the case of GCACUUCAGCGAGUCGGAATT against RPS6KA4, the median seed-adjusted z-score was inactive: 0.193.

In the case of GGAGGAUAAAAUUUCCAUUTT against CST5, the median seed-adjusted z-score was inactive: 0.466.

Take GACAGUUCCGUGUUCCGUUTT against GPR25: the median seed-adjusted z-score was inactive: 0.377.
